Results reported in PubChem BioAssay AID504834 (National Center for Advancing Translational Sciences (NCATS), 2011).
The whole screen tested about 320,000 compounds, of which about 22,000 (6.9%) were called active. The shares of active, inactive and inconclusive entries below differ from those in the screen. Calls come from the whole dose curve; as a rule, active = well fitted inhibition curve with a large enough effect; inconclusive = small, poorly fitted or top-dose-only effect, or another doubt; inactive = no such curve, though single readings can be large or run the other way. Potencies of inconclusive entries are doubtful fits and often do not repeat.

Experiment: Primary qHTS for delayed death inhibitors of the malarial parasite plastid, 96 hour incubation
Conditions: P. falciparum luciferase reporter growth; series mostly up to 28.7 µM
Method in brief: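 Cell-based qHTS: luciferase-tagged P. falciparum in erythrocytes (2% hematocrit, 0.05% parasitemia final) incubated with compounds for 96 hours, 37 C, 5% CO2; luciferase detection reagent then added and luminescence measured.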
Potency is the fitted concentration of half-maximal effect.

| Structure (SMILES) | Potency |
| --- | --- |
| Cc1ccc(C(c2cc(Cl)c3cccnc3c2O)N2CCN(C)CC2)cc1 (configuration not stated) | inconclusive: 1.47 µM [inhibitor, full curve] |
| COc1ccc(Nc2nnc(C)c(=O)[nH]2)cc1 | inconclusive: 5.86 µM [inhibitor, partial curve, poor fit] |
| CCN(C(=O)C1CCCN(c2nc(-c3ccc(OC)cc3)no2)C1)c1ccc(OC)cc1 (configuration not stated) | inconclusive: 11.7 µM [inhibitor, single point] |
| CCOc1ccc(CCNC(=O)C2CC(=O)N(CCc3ccc(OC)c(OC)c3)C2)cc1OCC (configuration not stated) | inconclusive: 18.5 µM [inhibitor, single point] |
| O=C(O)C1CCCN1C(=O)c1cccs1 (configuration not stated) | inactive |
| Cc1cc(NC(=O)COC(=O)Cn2c(C)csc2=O)ccc1Br | inconclusive: 20.8 µM [inhibitor, single point] |
| CCOC(=O)C1=C(C)OC(N)=C(C#N)C1c1cc(OC)c2c(c1)OCO2 (configuration not stated) | inconclusive: 10.4 µM [inhibitor, single point] |
| CCC(=O)N1N=C(c2cccs2)CC1c1ccc(OC)cc1 (configuration not stated) | inconclusive: 18.5 µM [inhibitor, single point] |
| COc1ccc(NC(=S)NC(=O)/C=C/c2ccco2)c(OC)c1 | inconclusive: 11.7 µM [inhibitor, single point] |
| O=C(COC(=O)c1cc(-c2cccs2)nc2ccccc12)NCc1ccco1 | inactive |
| Cc1cccc(Oc2nc(-c3ccncc3)nc3ccccc23)c1 | active: 1.47 µM |
| O=C(NCCSCc1c(F)cccc1Cl)Nc1ccccc1 | inconclusive: 11.7 µM [inhibitor, single point] |
| CC(=O)OCC1=C(C(=O)O)N2C(=O)C(NC(=O)COc3ccc(F)cc3)C2SC1 (configuration not stated) | inactive |
| O=C1NCCCC1C(=O)N/N=C/c1ccc(Cl)cc1 (configuration not stated) | inactive |
| Cc1ccccc1OCC(=O)N/N=C/c1ccncc1 | inactive |
| O=C(NCCCCc1ccccc1)C1CC(c2ccc(C(F)(F)F)cc2)=NO1 (configuration not stated) | inactive |
| Cc1ccc(S(=O)(=O)N2CCCN(C(C)c3nc4ccccc4c(=O)[nH]3)CC2)cc1 (configuration not stated) | active: 13.1 µM |
| Cc1sc2nc(SCC(=O)OC(C)C)n(C)c(=O)c2c1C | inactive |
| COc1cc(C2C3=C(CCCC3=O)Nc3[nH]n(-c4ccccc4)c(=O)c32)cc(OC)c1OC (configuration not stated) | inconclusive: 0.0033 µM [inhibitor, full curve, poor fit] |
| COc1ccc(NS(=O)(=O)c2cc(NC(=O)c3ccc(C)o3)ccc2N2CCCCC2)cc1 | inconclusive: 4.65 µM [inhibitor, partial curve, poor fit] |
| CC(=O)NN1C(=O)/C(=C/c2ccc(Br)o2)SC1=S | inactive |
| O=C(CC(=O)c1ccccc1)Nc1ccccn1 | inconclusive: 11.7 µM [inhibitor, single point] |
| COc1cccc(NC(=O)CNC(=O)c2ccc(C)o2)c1 | inconclusive: 14.7 µM [inhibitor, single point] |
| CN(Cc1ccccc1)C(=O)CSc1nc2ccccc2c(=O)n1Cc1ccco1 | inconclusive: 18.5 µM [inhibitor, single point] |

Part of the list above in order of formula weight, falling:

| Structure (SMILES) | Potency |
| --- | --- |
| CCOc1ccc(CCNC(=O)C2CC(=O)N(CCc3ccc(OC)c(OC)c3)C2)cc1OCC (configuration not stated) | inconclusive: 18.5 µM [inhibitor, single point] |
| CCN(C(=O)C1CCCN(c2nc(-c3ccc(OC)cc3)no2)C1)c1ccc(OC)cc1 (configuration not stated) | inconclusive: 11.7 µM [inhibitor, single point] |
| Cc1ccc(S(=O)(=O)N2CCCN(C(C)c3nc4ccccc4c(=O)[nH]3)CC2)cc1 (configuration not stated) | active: 13.1 µM |
| CN(Cc1ccccc1)C(=O)CSc1nc2ccccc2c(=O)n1Cc1ccco1 | inconclusive: 18.5 µM [inhibitor, single point] |
| O=C(COC(=O)c1cc(-c2cccs2)nc2ccccc12)NCc1ccco1 | inactive |
| Cc1ccc(C(c2cc(Cl)c3cccnc3c2O)N2CCN(C)CC2)cc1 (configuration not stated) | inconclusive: 1.47 µM [inhibitor, full curve] |
| CCOC(=O)C1=C(C)OC(N)=C(C#N)C1c1cc(OC)c2c(c1)OCO2 (configuration not stated) | inconclusive: 10.4 µM [inhibitor, single point] |
| COc1ccc(NC(=S)NC(=O)/C=C/c2ccco2)c(OC)c1 | inconclusive: 11.7 µM [inhibitor, single point] |
| Cc1sc2nc(SCC(=O)OC(C)C)n(C)c(=O)c2c1C | inactive |
| Cc1cccc(Oc2nc(-c3ccncc3)nc3ccccc23)c1 | active: 1.47 µM |
| O=C1NCCCC1C(=O)N/N=C/c1ccc(Cl)cc1 (configuration not stated) | inactive |
| O=C(CC(=O)c1ccccc1)Nc1ccccn1 | inconclusive: 11.7 µM [inhibitor, single point] |
| COc1ccc(Nc2nnc(C)c(=O)[nH]2)cc1 | inconclusive: 5.86 µM [inhibitor, partial curve, poor fit] |
| O=C(O)C1CCCN1C(=O)c1cccs1 (configuration not stated) | inactive |

More structures:

| Structure (SMILES) | Potency |
| --- | --- |
| Nc1c(Cl)cc(-c2[nH]c3cc(C(=O)NCCO)ccc3c(=O)c2O)cc1Cl | inconclusive: 6.57 µM [inhibitor, single point] |
| Cc1c(NC(=O)CN2C(=O)c3ccc([N+](=O)[O-])cc3C2=O)c(=O)n(-c2ccccc2)n1C | inactive |
| COc1ccc(CN2CCN(Cc3ccc(OC)c(OC)c3OC)CC2)cc1 | inactive |
| COc1ccc(-c2nc(CSCC(=O)N3CCN(C(=O)c4ccco4)CC3)c(C)o2)cc1OC | inconclusive: 18.5 µM [inhibitor, single point] |
| COCCN(Cc1cn(C)nc1-c1ccc(Oc2ccccc2)cc1)C(C)C | inconclusive: 18.5 µM [inhibitor, single point] |
| N#Cc1ccc(NC(=O)CNc2cc(S(=O)(=O)N3CCOCC3)ccc2NCC2CCCO2)cc1 (configuration not stated) | inconclusive: 11.7 µM [inhibitor, single point] |
| O=C(Nc1nc(-c2cc(F)ccc2F)cs1)C1=NN(c2ccccc2)C(=O)CC1 | inconclusive: 11.7 µM [inhibitor, partial curve, poor fit] |
| CCOc1ccccc1C(=O)NCC(=O)NC(C)c1ccc(-n2ccnc2)cc1 (configuration not stated) | inconclusive: 2.08 µM [inhibitor, full curve, poor fit] |
| CN(C1CCCCC1)S(=O)(=O)c1ccc2c(c1)CCC(=O)N2 | inactive |
| Cc1cccc(-n2c(O)c(C)c(=O)[nH]c2=S)c1 | inactive |
| Cc1ccc(NC(=S)N/N=C/c2ccc(OCCC(C)C)cc2)c(C)c1 | inconclusive: 10.4 µM [inhibitor, partial curve, poor fit] |
| CCOC(=O)Cc1csc(NC(=O)/C=C/c2ccc(Br)o2)n1 | inconclusive: 0.329 µM [inhibitor, full curve, poor fit] |
| COCCOC(=O)C1=C(C)NC(=S)NC1/C=C/c1ccccc1 (configuration not stated) | inconclusive: 10.4 µM [inhibitor, single point] |
| CC1=Nn2c(nc3sc4c(c3c2=O)CCCC4)SC1 | inactive |
| Cc1ccc(C(c2c(C)n(C)n(-c3ccccc3)c2=O)c2c(C)n(C)n(-c3ccccc3)c2=O)s1 | inconclusive: 0.329 µM [inhibitor, single point] |
| Brc1ccc2ncnc(NCc3cccnc3)c2c1 | inactive |
| Cc1ccc2cc(C#N)c(N3CCN(C(=O)c4cccs4)CC3)nc2c1 | inconclusive: 14.7 µM [inhibitor, single point] |
| CN(C)c1ccc(NC(=S)c2ccccn2)cc1 | inactive |
| O=C(N/N=C/c1ccco1)c1cc(-c2cccc(Br)c2)nc2ccccc12 | inconclusive: 18.5 µM [inhibitor, single point] |
| O=C(Nc1ncc(Cc2cccc(Cl)c2)s1)c1ccc([N+](=O)[O-])cc1 | active: 13.1 µM |
| CCC(C(=O)Nc1ccc([N+](=O)[O-])cn1)c1ccccc1 (configuration not stated) | inactive |
| FC(F)(F)c1ccccc1-n1c(CN2CCCCC2)n[nH]c1=S | inactive |
| CCOc1ccccc1CN1CCNC(=O)C1CC(=O)N(C)CCc1ccccn1 (configuration not stated) | inconclusive: 8.28 µM [inhibitor, partial curve, poor fit] |
